# Reference: the supplement of paper PMC12819154, “High-throughput peptide-centric local stability assay extends protein–ligand identification to membrane proteins, tissues and bacteria” (Nature Structural & Molecular Biology, 2025)
# Protein sequences, listed by entry. Tags and fused reporters are not part of them. Lines headed by an entry give the natural chain unless they say otherwise; changes in a name come on top.
# UniProt Q96BH1: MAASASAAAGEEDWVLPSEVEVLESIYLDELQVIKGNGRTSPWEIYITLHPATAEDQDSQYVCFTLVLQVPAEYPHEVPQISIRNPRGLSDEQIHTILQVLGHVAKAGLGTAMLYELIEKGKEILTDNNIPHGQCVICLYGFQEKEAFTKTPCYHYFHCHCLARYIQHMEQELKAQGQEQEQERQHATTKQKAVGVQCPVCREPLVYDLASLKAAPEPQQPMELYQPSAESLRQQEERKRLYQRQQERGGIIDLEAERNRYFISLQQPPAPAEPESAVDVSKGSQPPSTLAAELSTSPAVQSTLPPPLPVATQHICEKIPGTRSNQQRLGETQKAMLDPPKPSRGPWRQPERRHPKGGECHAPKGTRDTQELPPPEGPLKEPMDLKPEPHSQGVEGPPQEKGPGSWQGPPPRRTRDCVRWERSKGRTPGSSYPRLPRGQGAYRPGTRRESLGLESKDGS
# UniProt Q96E09: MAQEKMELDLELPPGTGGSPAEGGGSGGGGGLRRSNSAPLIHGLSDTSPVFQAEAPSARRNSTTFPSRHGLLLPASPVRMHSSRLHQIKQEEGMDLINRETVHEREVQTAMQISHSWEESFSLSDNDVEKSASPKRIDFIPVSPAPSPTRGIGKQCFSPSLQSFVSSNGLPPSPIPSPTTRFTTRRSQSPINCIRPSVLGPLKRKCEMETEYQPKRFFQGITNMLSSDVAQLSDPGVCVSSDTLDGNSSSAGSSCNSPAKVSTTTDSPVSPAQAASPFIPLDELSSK
# UniProt Q969W3: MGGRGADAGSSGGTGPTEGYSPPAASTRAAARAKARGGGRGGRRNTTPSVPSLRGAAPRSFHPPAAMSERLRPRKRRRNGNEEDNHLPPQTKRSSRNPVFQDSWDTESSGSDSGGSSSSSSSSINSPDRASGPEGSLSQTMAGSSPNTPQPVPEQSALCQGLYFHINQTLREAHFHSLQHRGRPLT
# UniProt Q92993, whole entry, looked up: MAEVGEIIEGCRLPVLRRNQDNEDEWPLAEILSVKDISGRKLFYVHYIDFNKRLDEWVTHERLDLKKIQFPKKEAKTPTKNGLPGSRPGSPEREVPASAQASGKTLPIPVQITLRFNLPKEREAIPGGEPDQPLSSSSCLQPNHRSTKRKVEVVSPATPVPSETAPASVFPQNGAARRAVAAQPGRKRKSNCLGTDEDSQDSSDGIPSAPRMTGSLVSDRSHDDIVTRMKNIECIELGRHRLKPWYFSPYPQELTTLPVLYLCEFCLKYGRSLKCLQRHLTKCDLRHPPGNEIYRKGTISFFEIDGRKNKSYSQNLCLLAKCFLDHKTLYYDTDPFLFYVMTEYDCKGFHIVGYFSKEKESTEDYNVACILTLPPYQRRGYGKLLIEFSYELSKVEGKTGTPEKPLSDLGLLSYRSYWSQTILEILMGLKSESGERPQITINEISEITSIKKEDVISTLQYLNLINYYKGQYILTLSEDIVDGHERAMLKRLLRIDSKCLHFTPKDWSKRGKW
# UniProt Q92623: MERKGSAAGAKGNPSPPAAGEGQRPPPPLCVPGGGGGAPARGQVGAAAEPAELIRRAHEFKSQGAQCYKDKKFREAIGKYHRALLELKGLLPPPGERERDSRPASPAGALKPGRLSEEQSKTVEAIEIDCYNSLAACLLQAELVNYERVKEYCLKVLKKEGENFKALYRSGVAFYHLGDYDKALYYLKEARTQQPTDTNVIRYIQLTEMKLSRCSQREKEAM
# UniProt Q92802: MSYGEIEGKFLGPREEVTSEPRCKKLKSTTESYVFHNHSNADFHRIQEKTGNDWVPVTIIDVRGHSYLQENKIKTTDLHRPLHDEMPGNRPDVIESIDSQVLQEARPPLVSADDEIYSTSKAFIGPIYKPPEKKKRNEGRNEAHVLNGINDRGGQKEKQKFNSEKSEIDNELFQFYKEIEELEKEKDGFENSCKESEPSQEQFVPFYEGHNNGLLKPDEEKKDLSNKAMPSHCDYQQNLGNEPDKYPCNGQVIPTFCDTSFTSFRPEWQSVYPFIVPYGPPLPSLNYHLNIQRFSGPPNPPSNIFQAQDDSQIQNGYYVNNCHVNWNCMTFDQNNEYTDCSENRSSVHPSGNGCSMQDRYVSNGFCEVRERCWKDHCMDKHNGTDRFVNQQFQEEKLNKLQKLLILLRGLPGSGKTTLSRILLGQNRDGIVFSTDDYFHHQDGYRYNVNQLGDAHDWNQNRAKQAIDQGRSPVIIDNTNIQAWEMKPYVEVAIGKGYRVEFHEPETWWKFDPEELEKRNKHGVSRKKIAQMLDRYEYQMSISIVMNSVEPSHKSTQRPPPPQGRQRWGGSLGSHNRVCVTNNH
# UniProt Q969R5, whole entry: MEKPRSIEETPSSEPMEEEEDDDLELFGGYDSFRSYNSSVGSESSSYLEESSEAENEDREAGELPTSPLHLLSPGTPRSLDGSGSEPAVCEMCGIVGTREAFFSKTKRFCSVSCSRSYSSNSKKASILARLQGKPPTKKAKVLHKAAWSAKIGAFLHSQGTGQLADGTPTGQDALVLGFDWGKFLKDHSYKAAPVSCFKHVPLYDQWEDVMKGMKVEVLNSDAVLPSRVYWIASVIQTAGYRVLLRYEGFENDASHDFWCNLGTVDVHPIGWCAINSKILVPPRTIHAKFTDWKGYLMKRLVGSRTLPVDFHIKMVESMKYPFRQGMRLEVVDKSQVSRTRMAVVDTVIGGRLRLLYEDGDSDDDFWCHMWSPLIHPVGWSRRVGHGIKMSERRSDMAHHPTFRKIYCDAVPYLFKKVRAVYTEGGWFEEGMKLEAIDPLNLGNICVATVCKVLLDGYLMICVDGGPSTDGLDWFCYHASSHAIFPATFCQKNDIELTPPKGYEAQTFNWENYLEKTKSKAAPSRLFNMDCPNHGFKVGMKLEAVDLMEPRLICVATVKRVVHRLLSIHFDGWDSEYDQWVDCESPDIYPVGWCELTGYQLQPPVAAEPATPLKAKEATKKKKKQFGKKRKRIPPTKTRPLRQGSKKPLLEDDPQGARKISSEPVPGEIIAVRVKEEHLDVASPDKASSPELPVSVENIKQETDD
# UniProt Q96ED9: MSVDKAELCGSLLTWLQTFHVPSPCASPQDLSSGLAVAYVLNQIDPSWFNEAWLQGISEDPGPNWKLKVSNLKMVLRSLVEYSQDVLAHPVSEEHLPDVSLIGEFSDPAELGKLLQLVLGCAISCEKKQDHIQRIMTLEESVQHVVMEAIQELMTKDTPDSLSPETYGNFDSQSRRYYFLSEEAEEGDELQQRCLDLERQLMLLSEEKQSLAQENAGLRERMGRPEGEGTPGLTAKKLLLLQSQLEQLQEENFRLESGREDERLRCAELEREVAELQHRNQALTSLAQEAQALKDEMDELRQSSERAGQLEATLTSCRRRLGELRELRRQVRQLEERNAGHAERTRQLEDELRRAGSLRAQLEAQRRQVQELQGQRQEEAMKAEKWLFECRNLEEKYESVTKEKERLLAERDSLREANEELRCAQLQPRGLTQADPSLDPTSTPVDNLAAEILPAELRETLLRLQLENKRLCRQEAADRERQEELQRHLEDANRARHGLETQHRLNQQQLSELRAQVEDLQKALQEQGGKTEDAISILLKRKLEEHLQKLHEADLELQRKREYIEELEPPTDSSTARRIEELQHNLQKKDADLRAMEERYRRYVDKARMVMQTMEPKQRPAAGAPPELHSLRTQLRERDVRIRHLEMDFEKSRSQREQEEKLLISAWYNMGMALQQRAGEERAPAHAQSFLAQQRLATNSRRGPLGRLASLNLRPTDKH
# UniProt Q969M7: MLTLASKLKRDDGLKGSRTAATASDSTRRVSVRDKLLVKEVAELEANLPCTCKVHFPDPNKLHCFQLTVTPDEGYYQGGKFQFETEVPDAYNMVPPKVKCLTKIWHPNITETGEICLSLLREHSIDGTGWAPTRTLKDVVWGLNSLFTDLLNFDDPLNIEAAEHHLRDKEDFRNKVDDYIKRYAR
# UniProt Q96DN6: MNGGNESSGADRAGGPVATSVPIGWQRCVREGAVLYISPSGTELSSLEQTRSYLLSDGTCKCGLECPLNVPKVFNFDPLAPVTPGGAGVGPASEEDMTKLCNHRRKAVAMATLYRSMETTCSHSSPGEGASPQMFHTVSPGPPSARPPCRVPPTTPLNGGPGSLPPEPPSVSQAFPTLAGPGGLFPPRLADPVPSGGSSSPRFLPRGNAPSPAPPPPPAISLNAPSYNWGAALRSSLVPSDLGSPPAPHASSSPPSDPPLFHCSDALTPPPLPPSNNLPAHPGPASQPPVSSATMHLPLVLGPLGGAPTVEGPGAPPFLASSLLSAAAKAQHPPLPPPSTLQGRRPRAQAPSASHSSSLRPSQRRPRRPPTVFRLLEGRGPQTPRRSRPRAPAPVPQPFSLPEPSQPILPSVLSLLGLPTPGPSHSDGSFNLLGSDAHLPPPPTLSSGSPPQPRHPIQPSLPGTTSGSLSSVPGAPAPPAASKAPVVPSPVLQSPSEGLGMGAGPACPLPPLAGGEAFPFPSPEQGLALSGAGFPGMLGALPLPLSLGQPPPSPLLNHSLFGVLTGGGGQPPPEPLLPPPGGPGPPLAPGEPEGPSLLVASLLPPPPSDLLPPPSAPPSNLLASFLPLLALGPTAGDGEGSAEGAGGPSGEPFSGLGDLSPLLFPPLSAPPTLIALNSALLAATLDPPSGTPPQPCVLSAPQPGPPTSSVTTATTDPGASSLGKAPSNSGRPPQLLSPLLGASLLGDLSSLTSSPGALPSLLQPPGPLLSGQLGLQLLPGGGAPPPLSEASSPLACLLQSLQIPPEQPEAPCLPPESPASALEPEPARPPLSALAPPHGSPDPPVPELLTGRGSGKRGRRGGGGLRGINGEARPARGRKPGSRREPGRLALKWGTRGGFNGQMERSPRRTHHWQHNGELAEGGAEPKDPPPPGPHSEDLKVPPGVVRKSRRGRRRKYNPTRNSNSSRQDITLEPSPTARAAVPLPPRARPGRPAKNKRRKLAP
# This is one part of the list. Small differences around the control level are noise.
# Compound: Cc1nc(Nc2ncc(C(=O)Nc3c(C)cccc3Cl)s2)cc(N2CCN(CCO)CC2)n1 [dasatinib]
# Test: log2 fold change of tryptic peptide abundance, ligand vs vehicle (limited proteolysis) (log2 ratio); higher = more trypsin-susceptible (destabilized)
# Conditions: ligand concentration: 5 uM; sample: K562 cleared lysate
row,Target,log2 fold change
1,"RNF25 (peptide sequence: EPLVYDLASLK, peptide start residue: 203) (UniProt Q96BH1)",-0.491
2,"FAM122A (peptide sequence: HGLLLPASPVR, peptide start residue: 69) (UniProt Q96E09)",-0.298
3,"FAM104A (peptide sequence: NTTPSVPSLR, peptide start residue: 45) (UniProt Q969W3)",-0.173
4,"KAT5 (peptide sequence: SHDDIVTR, peptide start residue: 221) (UniProt Q92993)",0.115
5,"UniProt Q92623 (peptide sequence: PASPAGALKPGR, peptide start residue: 103)",-0.0188
6,"UniProt Q92802 (peptide sequence: STTESYVFHNHSNADFHR, peptide start residue: 28)",-0.301
7,"L3MBTL2 (peptide sequence: KISSEPVPGEIIAVR, peptide start residue: 659) (UniProt Q969R5)",0.138
8,"HOOK2 (peptide sequence: LNQQQLSELR, peptide start residue: 505) (UniProt Q96ED9)",0.543
9,"UBE2F (peptide sequence: TAATASDSTR, peptide start residue: 19) (UniProt Q969M7)",0.127
10,"UniProt Q96DE5 (peptide sequence: KALFTYPK, peptide start residue: 33)",-0.15
11,"ATG2B (peptide sequence: LSPSWNPK, peptide start residue: 254) (UniProt Q96BY7)",-0.32
12,"MBD6 (peptide sequence: AQAPSASHSSSLRPSQR, peptide start residue: 348) (UniProt Q96DN6)",-0.289

# Pulled one by one from the entries so far (2):
row,Target,log2 fold change
5,"UniProt Q92623 (peptide sequence: PASPAGALKPGR, peptide start residue: 103)",-0.0188
7,"L3MBTL2 (peptide sequence: KISSEPVPGEIIAVR, peptide start residue: 659) (UniProt Q969R5)",0.138
